These are yes or no findings as the source states them, for the method shown. Binding seen in cells or lysates may run through a third protein. Some results given as binding are weak or reduced against the parent protein; the word gives no strength.
Legend:
[1] = biological target: human LTBP2 with Myc tag (pEF6/ssMyc-hLTBP2) (human) (UniProt Q14767); assay: co-precipitation with anti-FLAG antibody, anti-Myc Western blot
[2] = biological target: human DANCE construct with Myc tag (human) (UniProt Q9UBX5); assay: discussion of the co-precipitation with deletion mutants
[3] = biological target: human LTBP2 with Myc tag (pEF6/ssMyc-hLTBP2) (human) (UniProt Q14767); assay: discussion of the pull-down and co-precipitation experiments
[4] = biological target: human DANCE construct with Myc tag (human) (UniProt Q9UBX5); assay: co-precipitation with anti-FLAG antibody, anti-Myc Western blot
[5] = biological target: DANCE in the culture supernatant of bovine arterial smooth muscle cells (bovine) (UniProt Q5EA62); assay: pull-down with anti-FLAG agarose from 35S-labelled bovine smooth muscle cell supernatant, autoradiography
[6] = biological target: LTBP2 in the culture supernatant of bovine arterial smooth muscle cells (bovine) (UniProt Q28019); assay: as above

By UniProt entry, the sequences of proteins in these tests, tags left out. Where a name states a change or a piece, a line headed by the entry shows the natural chain unless it says otherwise. Chains listed by the source or under a name are the forms on record and can include a tag or linker. Residues count along the entry.
human LTBP2 with Myc tag (pEF6/ssMyc-hLTBP2) (Q14767, form named): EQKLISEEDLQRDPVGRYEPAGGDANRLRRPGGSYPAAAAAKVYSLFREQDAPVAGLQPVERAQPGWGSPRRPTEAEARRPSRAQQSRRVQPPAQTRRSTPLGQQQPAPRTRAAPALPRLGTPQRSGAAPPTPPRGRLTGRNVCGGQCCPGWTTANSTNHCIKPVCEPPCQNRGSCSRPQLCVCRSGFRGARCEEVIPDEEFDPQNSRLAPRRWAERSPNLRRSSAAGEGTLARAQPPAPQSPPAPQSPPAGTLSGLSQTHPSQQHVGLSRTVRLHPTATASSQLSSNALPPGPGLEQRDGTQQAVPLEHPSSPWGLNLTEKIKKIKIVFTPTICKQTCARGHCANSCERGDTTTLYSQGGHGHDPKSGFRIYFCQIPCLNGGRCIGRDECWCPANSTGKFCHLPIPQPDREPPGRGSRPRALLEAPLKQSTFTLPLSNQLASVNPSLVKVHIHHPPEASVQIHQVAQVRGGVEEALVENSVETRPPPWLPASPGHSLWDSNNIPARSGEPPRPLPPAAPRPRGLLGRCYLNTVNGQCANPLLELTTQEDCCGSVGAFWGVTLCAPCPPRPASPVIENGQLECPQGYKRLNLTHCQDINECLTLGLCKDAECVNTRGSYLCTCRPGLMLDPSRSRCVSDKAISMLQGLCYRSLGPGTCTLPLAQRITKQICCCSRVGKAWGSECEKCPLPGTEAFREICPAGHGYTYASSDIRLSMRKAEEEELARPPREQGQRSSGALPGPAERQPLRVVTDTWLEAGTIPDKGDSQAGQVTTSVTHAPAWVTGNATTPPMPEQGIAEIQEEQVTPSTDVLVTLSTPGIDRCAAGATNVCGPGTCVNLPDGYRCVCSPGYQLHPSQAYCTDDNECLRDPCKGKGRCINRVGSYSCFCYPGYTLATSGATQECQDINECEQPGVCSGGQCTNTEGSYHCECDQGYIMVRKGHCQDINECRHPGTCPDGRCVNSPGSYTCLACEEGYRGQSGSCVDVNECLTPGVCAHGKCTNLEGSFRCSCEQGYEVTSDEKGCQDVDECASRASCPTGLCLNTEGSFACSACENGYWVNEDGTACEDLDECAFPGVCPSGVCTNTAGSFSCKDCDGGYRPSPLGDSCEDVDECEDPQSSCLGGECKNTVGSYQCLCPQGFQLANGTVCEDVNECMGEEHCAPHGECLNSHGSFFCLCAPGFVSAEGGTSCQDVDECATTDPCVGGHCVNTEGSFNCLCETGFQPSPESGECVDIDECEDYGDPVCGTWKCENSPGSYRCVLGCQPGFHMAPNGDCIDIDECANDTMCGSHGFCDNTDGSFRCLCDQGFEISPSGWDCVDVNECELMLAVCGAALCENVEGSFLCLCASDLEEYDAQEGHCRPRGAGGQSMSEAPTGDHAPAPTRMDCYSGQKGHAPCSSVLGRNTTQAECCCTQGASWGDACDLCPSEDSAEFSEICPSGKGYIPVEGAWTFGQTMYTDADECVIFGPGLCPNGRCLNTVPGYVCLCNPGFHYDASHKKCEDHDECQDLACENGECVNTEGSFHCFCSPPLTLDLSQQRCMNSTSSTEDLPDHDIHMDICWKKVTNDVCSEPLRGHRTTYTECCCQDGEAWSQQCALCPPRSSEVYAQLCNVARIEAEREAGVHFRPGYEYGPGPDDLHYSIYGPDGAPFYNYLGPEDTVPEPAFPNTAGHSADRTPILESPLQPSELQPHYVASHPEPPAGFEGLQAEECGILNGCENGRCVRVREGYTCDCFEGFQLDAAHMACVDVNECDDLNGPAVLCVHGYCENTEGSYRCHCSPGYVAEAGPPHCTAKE
UniProt Q9UBX5: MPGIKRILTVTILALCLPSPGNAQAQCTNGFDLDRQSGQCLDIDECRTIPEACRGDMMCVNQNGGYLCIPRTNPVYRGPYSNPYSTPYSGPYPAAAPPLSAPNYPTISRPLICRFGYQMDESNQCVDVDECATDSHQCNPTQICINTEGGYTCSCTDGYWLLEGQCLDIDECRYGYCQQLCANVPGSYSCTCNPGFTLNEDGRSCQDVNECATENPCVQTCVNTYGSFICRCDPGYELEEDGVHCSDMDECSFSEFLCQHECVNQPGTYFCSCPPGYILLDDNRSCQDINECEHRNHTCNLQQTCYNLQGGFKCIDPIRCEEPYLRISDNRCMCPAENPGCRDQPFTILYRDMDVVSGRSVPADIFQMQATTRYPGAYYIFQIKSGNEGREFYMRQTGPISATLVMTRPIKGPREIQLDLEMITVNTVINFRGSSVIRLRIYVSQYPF
UniProt Q5EA62, residues 24-448: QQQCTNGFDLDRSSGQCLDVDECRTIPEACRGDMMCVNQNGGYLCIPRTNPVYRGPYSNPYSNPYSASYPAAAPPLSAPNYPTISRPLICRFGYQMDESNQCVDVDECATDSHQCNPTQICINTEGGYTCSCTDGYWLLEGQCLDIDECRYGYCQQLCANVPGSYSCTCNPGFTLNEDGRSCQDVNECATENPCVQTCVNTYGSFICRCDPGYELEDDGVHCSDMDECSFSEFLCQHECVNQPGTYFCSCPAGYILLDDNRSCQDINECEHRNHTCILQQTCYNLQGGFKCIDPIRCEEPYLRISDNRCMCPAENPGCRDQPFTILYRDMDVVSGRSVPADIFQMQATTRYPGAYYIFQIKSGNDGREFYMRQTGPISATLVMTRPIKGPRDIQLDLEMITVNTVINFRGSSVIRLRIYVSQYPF
UniProt Q28019, residues 36-1842: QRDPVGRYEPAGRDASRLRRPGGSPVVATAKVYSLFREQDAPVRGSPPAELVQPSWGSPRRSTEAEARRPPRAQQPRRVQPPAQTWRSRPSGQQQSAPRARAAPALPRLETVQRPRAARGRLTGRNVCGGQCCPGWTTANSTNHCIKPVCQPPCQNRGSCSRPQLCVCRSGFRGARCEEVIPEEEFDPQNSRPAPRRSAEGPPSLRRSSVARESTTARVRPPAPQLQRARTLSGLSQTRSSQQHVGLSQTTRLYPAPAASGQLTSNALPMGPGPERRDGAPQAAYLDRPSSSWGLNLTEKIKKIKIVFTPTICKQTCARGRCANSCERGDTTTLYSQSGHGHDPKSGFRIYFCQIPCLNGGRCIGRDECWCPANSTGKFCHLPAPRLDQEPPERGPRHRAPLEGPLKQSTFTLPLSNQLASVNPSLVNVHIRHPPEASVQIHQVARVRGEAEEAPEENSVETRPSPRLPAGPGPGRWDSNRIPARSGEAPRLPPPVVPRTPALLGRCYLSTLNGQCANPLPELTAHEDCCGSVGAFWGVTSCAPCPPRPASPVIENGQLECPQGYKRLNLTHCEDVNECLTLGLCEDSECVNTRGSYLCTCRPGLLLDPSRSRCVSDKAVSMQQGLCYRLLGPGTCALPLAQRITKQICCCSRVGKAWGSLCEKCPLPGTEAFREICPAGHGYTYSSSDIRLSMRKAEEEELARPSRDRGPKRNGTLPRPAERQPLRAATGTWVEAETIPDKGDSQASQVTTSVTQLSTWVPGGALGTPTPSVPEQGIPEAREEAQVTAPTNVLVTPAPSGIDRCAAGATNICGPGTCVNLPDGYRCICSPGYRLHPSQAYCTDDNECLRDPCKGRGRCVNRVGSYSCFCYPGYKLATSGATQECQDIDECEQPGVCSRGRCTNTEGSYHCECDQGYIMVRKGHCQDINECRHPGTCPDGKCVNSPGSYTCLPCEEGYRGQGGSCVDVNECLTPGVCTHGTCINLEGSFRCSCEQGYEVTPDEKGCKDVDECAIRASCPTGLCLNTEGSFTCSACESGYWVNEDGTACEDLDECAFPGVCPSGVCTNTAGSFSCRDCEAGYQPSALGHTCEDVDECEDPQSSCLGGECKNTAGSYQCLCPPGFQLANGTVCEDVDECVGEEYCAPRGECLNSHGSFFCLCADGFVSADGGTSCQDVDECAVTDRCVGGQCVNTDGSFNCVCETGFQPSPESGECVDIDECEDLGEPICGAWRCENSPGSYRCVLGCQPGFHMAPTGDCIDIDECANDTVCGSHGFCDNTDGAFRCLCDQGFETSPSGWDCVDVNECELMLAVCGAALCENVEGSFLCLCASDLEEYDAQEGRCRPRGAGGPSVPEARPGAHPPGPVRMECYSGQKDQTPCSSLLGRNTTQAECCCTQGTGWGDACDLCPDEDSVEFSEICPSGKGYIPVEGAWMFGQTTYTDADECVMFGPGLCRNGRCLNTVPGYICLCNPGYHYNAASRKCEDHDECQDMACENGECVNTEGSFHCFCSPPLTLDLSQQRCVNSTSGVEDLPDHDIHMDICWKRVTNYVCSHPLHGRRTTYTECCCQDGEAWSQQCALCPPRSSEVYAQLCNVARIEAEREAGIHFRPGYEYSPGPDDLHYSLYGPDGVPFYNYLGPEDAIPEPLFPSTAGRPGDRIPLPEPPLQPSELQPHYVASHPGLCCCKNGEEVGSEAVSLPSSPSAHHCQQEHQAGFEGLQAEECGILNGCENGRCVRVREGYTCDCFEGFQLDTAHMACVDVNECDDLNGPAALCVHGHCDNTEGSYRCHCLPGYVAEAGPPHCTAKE

Measured: binding

human DANCE deltaC with C-terminal FLAG and 6xHis (pEF6-hDANCE ΔC-FLAG) (from UniProt Q9UBX5 24-316)
binds: [1]

human DANCE with C-terminal FLAG tag and 6xHis tag (pEF6-hDANCE-FLAG) (from UniProt Q9UBX5 24-448)
binds: all assays above

Source: patent US20070218003A1
